# This is one part of the list.
# By UniProt entry, the sequences of proteins in these tests, tags left out. Where a name states a change or a piece, a line headed by the entry shows the natural chain unless it says otherwise.
# UniProt P56377: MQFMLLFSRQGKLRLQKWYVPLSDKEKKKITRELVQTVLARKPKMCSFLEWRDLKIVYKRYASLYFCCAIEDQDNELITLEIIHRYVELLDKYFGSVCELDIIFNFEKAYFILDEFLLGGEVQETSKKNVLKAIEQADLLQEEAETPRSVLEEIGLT
# UniProt Q9UJX3, whole entry: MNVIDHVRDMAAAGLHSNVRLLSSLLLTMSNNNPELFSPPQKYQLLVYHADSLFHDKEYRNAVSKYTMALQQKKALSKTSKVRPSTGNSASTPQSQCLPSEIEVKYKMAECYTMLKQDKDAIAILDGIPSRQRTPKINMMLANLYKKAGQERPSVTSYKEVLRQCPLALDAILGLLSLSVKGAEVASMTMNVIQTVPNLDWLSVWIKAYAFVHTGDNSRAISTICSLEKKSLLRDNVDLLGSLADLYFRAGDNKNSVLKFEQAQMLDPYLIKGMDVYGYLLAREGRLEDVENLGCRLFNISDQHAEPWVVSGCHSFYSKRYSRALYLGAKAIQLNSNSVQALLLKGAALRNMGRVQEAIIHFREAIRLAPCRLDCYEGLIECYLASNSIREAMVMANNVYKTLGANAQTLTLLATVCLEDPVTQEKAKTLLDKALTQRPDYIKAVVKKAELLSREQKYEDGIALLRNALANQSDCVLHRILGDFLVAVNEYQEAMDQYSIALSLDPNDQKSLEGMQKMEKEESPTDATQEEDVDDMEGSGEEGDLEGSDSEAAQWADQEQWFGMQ
# UniProt Q96P48: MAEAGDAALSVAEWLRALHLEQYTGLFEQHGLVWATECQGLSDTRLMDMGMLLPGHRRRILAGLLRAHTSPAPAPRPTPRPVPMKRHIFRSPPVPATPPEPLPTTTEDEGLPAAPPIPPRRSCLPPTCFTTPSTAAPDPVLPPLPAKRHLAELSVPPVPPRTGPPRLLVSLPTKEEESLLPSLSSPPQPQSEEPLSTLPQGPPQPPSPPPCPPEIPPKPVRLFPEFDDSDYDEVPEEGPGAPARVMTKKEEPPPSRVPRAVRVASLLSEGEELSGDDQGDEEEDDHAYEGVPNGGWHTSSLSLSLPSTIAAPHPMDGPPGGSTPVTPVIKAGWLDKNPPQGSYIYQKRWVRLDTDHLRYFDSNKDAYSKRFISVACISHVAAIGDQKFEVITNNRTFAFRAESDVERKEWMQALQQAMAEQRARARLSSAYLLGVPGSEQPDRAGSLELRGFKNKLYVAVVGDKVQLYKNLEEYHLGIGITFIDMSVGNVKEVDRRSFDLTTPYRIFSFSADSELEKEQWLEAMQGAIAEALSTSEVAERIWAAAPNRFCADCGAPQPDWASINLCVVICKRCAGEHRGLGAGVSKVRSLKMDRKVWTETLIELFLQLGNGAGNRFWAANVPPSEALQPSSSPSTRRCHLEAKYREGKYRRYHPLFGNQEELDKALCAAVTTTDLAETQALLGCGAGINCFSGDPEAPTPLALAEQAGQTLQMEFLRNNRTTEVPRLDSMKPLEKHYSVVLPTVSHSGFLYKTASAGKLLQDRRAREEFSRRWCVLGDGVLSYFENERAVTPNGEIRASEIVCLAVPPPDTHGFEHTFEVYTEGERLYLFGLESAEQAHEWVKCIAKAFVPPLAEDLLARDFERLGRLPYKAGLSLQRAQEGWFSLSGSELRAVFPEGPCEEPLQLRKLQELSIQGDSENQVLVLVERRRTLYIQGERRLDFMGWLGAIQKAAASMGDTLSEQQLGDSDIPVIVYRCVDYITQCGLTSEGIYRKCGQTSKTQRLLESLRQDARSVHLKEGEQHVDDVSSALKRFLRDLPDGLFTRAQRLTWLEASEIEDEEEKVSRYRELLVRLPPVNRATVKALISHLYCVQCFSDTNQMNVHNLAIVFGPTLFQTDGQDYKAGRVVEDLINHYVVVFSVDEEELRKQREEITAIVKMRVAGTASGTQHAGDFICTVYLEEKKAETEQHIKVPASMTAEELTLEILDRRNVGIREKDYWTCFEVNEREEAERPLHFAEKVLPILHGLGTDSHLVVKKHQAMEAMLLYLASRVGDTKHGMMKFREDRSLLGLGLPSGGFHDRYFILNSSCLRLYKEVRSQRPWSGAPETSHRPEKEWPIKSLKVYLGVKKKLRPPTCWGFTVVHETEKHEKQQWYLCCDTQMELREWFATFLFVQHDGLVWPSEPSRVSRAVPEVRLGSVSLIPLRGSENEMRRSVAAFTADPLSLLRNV
# UniProt P04075: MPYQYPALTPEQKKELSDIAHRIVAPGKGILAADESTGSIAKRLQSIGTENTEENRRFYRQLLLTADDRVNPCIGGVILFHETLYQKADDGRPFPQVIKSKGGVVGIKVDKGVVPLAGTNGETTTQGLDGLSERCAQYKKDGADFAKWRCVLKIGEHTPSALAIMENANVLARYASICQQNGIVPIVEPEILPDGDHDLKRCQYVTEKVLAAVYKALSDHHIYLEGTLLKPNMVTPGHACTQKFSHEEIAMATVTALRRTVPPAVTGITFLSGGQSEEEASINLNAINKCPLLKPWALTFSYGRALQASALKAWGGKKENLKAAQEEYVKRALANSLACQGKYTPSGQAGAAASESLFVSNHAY
# UniProt P08133: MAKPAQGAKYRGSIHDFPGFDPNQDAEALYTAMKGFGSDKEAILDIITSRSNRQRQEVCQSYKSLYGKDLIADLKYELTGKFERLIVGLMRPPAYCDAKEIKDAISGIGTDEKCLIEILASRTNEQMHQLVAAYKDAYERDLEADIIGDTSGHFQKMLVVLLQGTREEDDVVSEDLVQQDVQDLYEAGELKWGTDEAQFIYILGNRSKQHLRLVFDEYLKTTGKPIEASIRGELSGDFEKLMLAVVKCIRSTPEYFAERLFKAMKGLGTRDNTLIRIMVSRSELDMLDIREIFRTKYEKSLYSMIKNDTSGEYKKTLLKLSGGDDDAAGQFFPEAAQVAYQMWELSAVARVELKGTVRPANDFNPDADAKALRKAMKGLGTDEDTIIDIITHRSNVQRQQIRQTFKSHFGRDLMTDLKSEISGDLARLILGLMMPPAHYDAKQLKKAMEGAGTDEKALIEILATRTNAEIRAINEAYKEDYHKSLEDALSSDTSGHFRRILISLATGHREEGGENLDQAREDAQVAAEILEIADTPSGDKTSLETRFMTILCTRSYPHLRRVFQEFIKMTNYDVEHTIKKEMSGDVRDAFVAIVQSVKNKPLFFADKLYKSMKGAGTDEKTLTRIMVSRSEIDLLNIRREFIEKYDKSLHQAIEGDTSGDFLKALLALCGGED
# UniProt Q06481, whole entry: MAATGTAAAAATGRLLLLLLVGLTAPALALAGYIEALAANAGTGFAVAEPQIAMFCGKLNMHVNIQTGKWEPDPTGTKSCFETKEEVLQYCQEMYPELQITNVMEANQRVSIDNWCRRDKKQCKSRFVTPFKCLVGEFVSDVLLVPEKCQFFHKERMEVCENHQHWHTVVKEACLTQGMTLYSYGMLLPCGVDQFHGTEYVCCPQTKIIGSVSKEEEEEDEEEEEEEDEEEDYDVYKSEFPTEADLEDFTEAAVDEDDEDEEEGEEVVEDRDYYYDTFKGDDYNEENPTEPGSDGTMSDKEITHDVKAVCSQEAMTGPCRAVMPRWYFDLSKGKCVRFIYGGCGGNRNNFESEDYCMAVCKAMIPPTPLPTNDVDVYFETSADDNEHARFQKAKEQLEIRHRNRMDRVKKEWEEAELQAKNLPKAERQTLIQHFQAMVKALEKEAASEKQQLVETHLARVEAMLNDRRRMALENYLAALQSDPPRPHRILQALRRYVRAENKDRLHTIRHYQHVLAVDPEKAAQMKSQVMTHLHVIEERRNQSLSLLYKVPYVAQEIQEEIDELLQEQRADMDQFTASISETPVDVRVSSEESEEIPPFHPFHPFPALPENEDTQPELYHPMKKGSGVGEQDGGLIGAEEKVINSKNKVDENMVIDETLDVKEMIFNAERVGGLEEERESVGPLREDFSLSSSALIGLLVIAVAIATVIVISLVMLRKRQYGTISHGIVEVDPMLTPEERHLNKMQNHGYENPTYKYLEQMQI
# UniProt P05089: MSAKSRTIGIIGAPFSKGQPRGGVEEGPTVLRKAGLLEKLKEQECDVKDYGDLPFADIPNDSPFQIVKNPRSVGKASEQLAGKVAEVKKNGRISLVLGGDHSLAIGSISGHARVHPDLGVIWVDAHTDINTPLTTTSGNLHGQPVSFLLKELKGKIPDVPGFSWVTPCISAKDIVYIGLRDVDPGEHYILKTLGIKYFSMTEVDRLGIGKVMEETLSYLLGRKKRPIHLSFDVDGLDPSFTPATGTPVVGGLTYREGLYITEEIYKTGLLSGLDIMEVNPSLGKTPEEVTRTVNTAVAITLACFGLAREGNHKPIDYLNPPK
# UniProt O43823: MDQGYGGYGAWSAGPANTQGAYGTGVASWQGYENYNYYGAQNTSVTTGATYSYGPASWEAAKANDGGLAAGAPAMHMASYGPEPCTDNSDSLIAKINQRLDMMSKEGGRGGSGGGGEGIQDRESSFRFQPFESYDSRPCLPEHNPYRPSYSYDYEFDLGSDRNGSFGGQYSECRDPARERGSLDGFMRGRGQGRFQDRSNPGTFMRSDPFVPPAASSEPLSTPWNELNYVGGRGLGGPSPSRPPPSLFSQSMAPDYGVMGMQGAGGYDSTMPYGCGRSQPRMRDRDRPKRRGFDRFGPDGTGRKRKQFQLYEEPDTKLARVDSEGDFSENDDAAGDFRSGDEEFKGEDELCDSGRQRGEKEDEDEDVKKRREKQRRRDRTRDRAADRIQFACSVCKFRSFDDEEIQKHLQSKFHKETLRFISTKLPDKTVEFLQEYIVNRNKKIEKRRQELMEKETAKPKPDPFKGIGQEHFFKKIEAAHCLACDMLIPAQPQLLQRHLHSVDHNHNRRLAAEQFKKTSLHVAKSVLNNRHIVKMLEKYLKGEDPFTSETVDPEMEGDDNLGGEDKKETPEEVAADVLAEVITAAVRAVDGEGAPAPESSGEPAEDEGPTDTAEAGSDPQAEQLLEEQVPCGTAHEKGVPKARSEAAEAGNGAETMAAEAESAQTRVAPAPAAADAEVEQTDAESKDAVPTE
# UniProt Q8N8A2: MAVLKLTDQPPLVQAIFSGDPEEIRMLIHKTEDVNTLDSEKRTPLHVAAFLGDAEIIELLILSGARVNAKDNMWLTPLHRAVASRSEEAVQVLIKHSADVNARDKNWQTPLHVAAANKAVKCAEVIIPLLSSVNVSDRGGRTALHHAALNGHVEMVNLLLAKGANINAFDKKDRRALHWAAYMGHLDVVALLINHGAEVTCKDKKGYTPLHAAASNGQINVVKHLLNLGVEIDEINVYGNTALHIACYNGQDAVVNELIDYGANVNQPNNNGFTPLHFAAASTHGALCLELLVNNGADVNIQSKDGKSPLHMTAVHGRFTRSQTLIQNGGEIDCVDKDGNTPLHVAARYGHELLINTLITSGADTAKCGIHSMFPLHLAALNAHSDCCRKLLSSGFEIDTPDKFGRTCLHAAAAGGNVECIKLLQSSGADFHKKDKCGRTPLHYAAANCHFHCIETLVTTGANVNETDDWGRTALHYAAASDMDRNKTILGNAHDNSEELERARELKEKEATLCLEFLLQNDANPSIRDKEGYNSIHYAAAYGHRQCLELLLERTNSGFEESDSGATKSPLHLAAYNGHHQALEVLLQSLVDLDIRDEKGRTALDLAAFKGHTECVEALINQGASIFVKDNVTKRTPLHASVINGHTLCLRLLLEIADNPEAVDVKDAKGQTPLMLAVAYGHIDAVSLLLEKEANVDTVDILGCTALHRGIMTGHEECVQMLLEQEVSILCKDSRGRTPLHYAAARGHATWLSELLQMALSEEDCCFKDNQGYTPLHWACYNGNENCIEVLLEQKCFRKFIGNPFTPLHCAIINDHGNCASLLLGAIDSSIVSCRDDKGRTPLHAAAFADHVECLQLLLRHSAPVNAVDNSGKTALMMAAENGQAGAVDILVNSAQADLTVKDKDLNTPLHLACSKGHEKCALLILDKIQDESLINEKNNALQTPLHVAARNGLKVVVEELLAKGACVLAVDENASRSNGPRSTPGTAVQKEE
# UniProt P41227: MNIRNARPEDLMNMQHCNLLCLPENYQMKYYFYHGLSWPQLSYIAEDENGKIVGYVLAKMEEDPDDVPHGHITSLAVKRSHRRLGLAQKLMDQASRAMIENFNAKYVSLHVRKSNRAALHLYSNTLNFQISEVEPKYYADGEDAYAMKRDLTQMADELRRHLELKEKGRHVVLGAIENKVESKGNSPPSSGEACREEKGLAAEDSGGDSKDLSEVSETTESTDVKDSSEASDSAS
# UniProt Q9Y673: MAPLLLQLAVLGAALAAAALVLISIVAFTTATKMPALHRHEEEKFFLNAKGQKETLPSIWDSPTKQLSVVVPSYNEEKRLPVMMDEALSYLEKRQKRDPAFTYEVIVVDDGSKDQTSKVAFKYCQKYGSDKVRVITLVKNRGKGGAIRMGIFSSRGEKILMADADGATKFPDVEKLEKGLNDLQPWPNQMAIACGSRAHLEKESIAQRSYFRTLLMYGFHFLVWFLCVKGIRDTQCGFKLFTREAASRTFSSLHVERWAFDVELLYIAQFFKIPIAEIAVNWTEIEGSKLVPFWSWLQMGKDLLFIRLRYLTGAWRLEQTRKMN
# Compound: COc1ccc(Cn2ccc3cc(C)c(C(=O)NO)cc32)cc1
# Experiment: dose-dependent thermal stabilisation call (2D-TPP, DLPTP, 10% FDR) (binary (1 = stabilised)); higher = stabilised by the compound
# Conditions: system: HL-60 intact cells; concentration range 0.04-10 µM
# Experimental: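 2D thermal proteome profiling in intact HL-60 cells treated with BRD-3811 (0, 0.04, 0.29, 2, 10 uM) for 90 min at 37 C, then heated 3 min at one of 12 temperatures (42-63.9 C). Soluble protein was quantified by TMT10 MS. The value is the DLPTP call of the paper: dose-dependent thermal stabilisation over all temperatures at 10% FDR (F-test of a dose-response against a flat model); one experiment, one call per tested protein.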
row,Target,dose-dependent thermal stabilisation call
1,ARHGAP5 (UniProt Q13017),inactive: 0
2,APOBEC3G (UniProt Q9HC16),inactive: 0
3,ALKBH4 (UniProt Q9NXW9),inactive: 0
4,ANKLE1 (UniProt Q8NAG6),inactive: 0
5,APOBEC3C (UniProt Q9NRW3),inactive: 0
6,ASNS (UniProt P08243),inactive: 0
7,ASNA1 (UniProt O43681),inactive: 0
8,AP1S2 (UniProt P56377),inactive: 0
9,ANAPC7 (UniProt Q9UJX3),inactive: 0
10,ASL (UniProt P04424),inactive: 0
11,AMDHD2 (UniProt Q9Y303),inactive: 0
12,ARAP1 (UniProt Q96P48),inactive: 0
13,ANP32E (UniProt Q9BTT0),inactive: 0
14,ALDOA (UniProt P04075),inactive: 0
15,ATG2A (UniProt Q2TAZ0),inactive: 0
16,ANXA6 (UniProt P08133),inactive: 0
17,ATAD1 (UniProt Q8NBU5),inactive: 0
18,ARS2 (UniProt Q9BXP5),inactive: 0

row,Target,dose-dependent thermal stabilisation call
1,ALCAM (UniProt Q13740),inactive: 0
2,ASMTL (UniProt O95671),inactive: 0
3,APLP2 (UniProt Q06481),inactive: 0
4,AGPS (UniProt O00116),inactive: 0
5,ARF4 (UniProt P18085),inactive: 0
6,ATG4B (UniProt Q9Y4P1),inactive: 0
7,ALAD (UniProt P13716),inactive: 0
8,ANKS1A (UniProt Q92625),inactive: 0
9,ARG1 (UniProt P05089),inactive: 0
10,AKAP8 (UniProt O43823),inactive: 0
11,ANKRD44 (UniProt Q8N8A2),inactive: 0
12,ALG10 (UniProt Q5BKT4),inactive: 0
13,ARD1A (UniProt P41227),inactive: 0
14,AK2 (UniProt P54819),inactive: 0
15,ARMCX3 (UniProt Q9UH62),inactive: 0
16,AP3M1 (UniProt Q9Y2T2),inactive: 0
17,ALG5 (UniProt Q9Y673),inactive: 0
18,ASCC2 (UniProt Q9H1I8),inactive: 0

# In another format: results already given
row	Target	dose-dependent thermal stabilisation call
6	ATG4B (UniProt Q9Y4P1)	inactive: 0
8	ANKS1A (UniProt Q92625)	inactive: 0
10	AKAP8 (UniProt O43823)	inactive: 0
11	ANKRD44 (UniProt Q8N8A2)	inactive: 0
12	ALG10 (UniProt Q5BKT4)	inactive: 0
16	AP3M1 (UniProt Q9Y2T2)	inactive: 0
17	ALG5 (UniProt Q9Y673)	inactive: 0
18	ASCC2 (UniProt Q9H1I8)	inactive: 0

# Source: the supplement of paper PMC7666118
